{"source": "PubChem BioAssay AID2514", "about": "(National Center for Advancing Translational Sciences (NCATS), 2010)", "note": "Inconclusive results, whose numbers are uncertain, are shown with a selection of clear calls. Potencies beside an inconclusive call are fits to weak or partial responses and may not hold up. Calls of active or inactive are those of the source. The call rests on the fitted dose curve; in most records, active means well fitted activation curve with a large enough effect; inconclusive means small, poorly fitted or top-dose-only effect; inactive means no such curve, though single readings can be large or run the other way.", "data": [{"assay": "Confirmation Concentration-Response Assay for Enhancers of SMN2 Splice Variant Expression for Probe SAR", "settings": "HEK293 SMN2 exon7 splicing luciferase reporter, luminescence; series mostly up to 46.1 µM", "text": "NIH Chemical Genomics Center [NCGC] NIH Molecular Libraries Probe Production centers Network [MLPCN] MLPCN Grant: R03 MH084179-01 Assay Submitter (PI): Elliot Androphy NCGC Assay Overview: Spinal muscular atrophy (SMA) is caused by insufficient levels of the survival motor neuron protein SMN. The SMN locus on chromosome 5q13 contains two inverted copies of SMN called SMN1 and SMN2 which are 99% identical at the amino acid level. SMN1 is a fully functional protein and SMN2 skips exon 7 90% of the time. Skipping of exon 7 produces non-functional protein product. 10% of the SMN2 protein includes exon 7 and is fully functional. In the SMA disease state, mutations in the SMN1 locus are the cause of the disease state. Because only 10% of SMN2 is of the fully functional form, it is not sufficient to overcome the deficiency produced by the loss of the SMN1 product. A therapy that either increase the amount of SMN2 product made or to increase the inclusion of exon 7 has been proposed for the treatment of SMA. We have designed an assay to identify small molecules that can increase the amount of functional SMN2 product by appending a luciferase reporter gene after the native SMN2 gene, such that inclusion of exon 7 in the expressed product places the luciferase sequence in frame, thus generating functional luciferase enzyme.\nNCGC Assay Protocol Summary: This screen utilizes a luciferase reporter gene assay, combining the promoter with the major portion of the native SMN2 cDNA (exons 1 -7, intron 8 , exon 8 fused to luciferase) stably expressed in HEK293 cells. Compounds that increase luciferase signal presumably enhance expression of the functional SMN2 splice variant. Passaging media contained DMEM w/ glutamax (+phenol red) 10% FCS, 1x pen/strep, 200 ug/ml hygro, 1x sodium pyruvate. Assay media contained DMEM w/ glutamax (-phenol red) 10% FCS, 1x pen strep, 1x pyruvate Sequence, Parameter, Value, Description (1) Cells, 5 uL, 2000 cells/well, 1536 TC treated White solid bottom plate (2) Time, 10-12 hours, 37C 5% CO2 (3) Compound, 23 nl, MLSMR Library (4) Control Compound, 23 nL, Sodium butyrate st 4.5mM (final) conc (5) Time, 30-36 hours, 37C 5% CO2 (6) Reagent, 3 ul, One Glo (TM) from Promega (7) Time, 5-15 minutes, Room temp (8) Detector, Viewlux: luminescent read, 60 second integration, high speed 2x binning Keywords: Spinal muscular atrophy, SMA, SMN2, high throughput screening, MLSMR, MLPCN, NIH Roadmap, qHTS and NCGC", "values": [{"smiles": "NC(=O)C1CCN(c2nc(-c3ccccc3Br)cs2)CC1", "Potency": "inactive"}, {"smiles": "CN(C)C(=O)c1cccc(-c2csc(N3CCC(C(N)=O)CC3)n2)c1", "Potency": "inconclusive: 10.9 µM [activator, full curve]"}, {"smiles": "NC(=O)C1CCN(c2nc(-c3ccc4ccccc4c3)cs2)CC1", "Potency": "active: 4.87 µM"}, {"smiles": "Brc1ccc(-c2csc(N3CCOCC3)n2)cc1", "Potency": "inconclusive: 15.4 µM [activator, partial curve, poor fit]"}, {"smiles": "CS(=O)(=O)c1ccccc1-c1csc(N2CCC(C(N)=O)CC2)n1", "Potency": "inactive"}, {"smiles": "NC(=O)C1CCN(c2nc(-c3cccc(Cl)c3)cs2)CC1", "Potency": "inconclusive: 12.2 µM [activator, full curve]"}, {"smiles": "NC(=O)C1CCN(c2nc(-c3ccccc3N)cs2)CC1", "Potency": "inconclusive: 34.5 µM [activator, single point]"}, {"smiles": "CS(=O)(=O)c1cccc(-c2csc(N3CCC(C(N)=O)CC3)n2)c1", "Potency": "inactive"}, {"smiles": "NC(=O)C1CCN(c2nc(-c3ccccc3-c3ccccc3)cs2)CC1", "Potency": "inactive"}]}]}
